# According to PubChem BioAssay (NCATS):
# Several values for one entry are separate records, joined by “and”; a condition that tells them apart may be missing. Identical values can stand only once. Inconclusive means that the source gave no clear call. Such entries were picked first, then a sample of the others. Where the call is inconclusive, the potency comes from a doubtful curve fit. Activity calls are given as the source filed them. Calls follow the shape of the dose curve; as a rule, active = well fitted cell-killing curve with a large enough effect; inconclusive = small, poorly fitted or top-dose-only effect; inactive = no such curve, though single readings can be large or run the other way.
# Test: qHTS of pediatric cancer cell lines to identify multiple opportunities for drug repurposing: Confirmatory screen for U-2 OS cells (AID 1347122); also: nearly all actives have a fitted effect of over 65% in size
# Conditions: U-2 OS osteosarcoma cell viability; series mostly up to 45.9 µM; activity change, negative = cytotoxicity: at the top concentration
# Description: Drug repurposing or repositioning has been offered as a strategy for drug development in oncology programs. This approach has special potential for childhood cancers and other rare or orphan diseases, where the expected return on new drug development has been a disincentive to pharmaceuticals.
# In this project we exploit the poly-pharmacology of drugs to discover new indications via phenotypic screening of a panel of 19 well-characterized cell lines derived from solid tumors seen in children and adolescents. The goal is to identify approved drugs with previously unrecognized anticancer properties that has the potential to reveal new mechanisms and biological processes involved in carcinogenesis or drug resistance. We employed a titration-based paradigm (quantitative high-throughput screening or qHTS), where all compounds were tested at multiple concentrations for their effect on cell viability. Concentration-response curves (CRCs) were derived directly from the primary screen, and both potency and efficacy values were used to identify compounds with robust bioactivity profiles. We screened the NIH Chemical Genomics Center (NCGC) Pharmaceutical Collection (NPC) and Mechanism Interrogation Plate (MIPE) small molecule collections of approved and investigational compounds against these cell lines; and measured metabolically active cells after 48 hours of compound treatment as a proxy for cell viability.
# Assay Submitter: Nathalia J. Martinez, National Center for Advancing Translational Sciences, National Institutes of Health, Rockville, MD, USA; email: natalia.martinez@nih.gov
# [1] Shen, M et al. Quantitative high-throughput phenotypic screening of pediatric cancer cell lines identifies multiple opportunities for drug repurposing. Oncotarget 2017 Dec 19;9(4):4758-4772. PMID 29435139.
# The cells were obtained from University of North Carolina (UNC), Pediatric Preclinical Testing Program (PPT), and Coriell Institute (CI).
# qHTS cell viability assay:
# Cells were assayed in growth media at a density of 500-1,000 cells/well. Five microliters of cells were dispensed into 1,536-well, white, solid-bottom, TC-treated plates (Greiner Bio One) using a multidrop dispenser and incubated at 37 degrees C, 5% CO2, under a humidified atmosphere for 5 hours. Twenty-three nanoliters of compounds and controls (neutral control DMSO or positive control bortezomib at final concentration of 2.3 µM) were subsequently transferred by Kalypsys pintool. For primary screens, the MIPE collection was tested at 11-point dilutions (final concentrations range from 0.78 nM to 46 µM) and the NPC collection at 8-point dilutions (final concentrations range from 0.59 nM to 46 µM). Compounds tested in follow-up screens were assayed at 11-point dilutions. Cells were incubated for 48 hours, followed by addition of 3 µL of CellTiter-Glo (Promega). After a 15 min incubation at room temperature, samples were analyzed for luminescence intensity using a ViewLux High-throughput CCD imager equipped with clear filters.
# Potency is read from the fitted curve at half-maximal effect.
SMILES,Potency,"activity change, negative = cytotoxicity",outcome
COc1cccc2c1C(=O)c1c(O)c3c(c(O)c1C2=O)C[C@@](O)(C(=O)CO)C[C@H]3O[C@H]1C[C@H](N)[C@H](O)[C@H](C)O1,active: 13.1 µM,,
Nc1nc2c(c(=O)[nH]1)N(C=O)[C@H](CNc1ccc(C(=O)N[C@@H](CCC(=O)O)C(=O)O)cc1)CN2,,inactive: 16.6%,
CC[C@]1(O)C[C@@H]2CN(CCc3c([nH]c4ccccc34)[C@@](C(=O)OC)(c3cc4c(cc3OC)N(C)[C@H]3[C@@](O)(C(=O)OC)[C@H](OC(C)=O)[C@]5(CC)C=CCN6CC[C@]43[C@@H]65)C2)C1,active: 369 nM and active: 1.17 µM,,
Cc1ccc(C(=O)Nc2cccc(C(F)(F)F)c2)cc1-c1ccc2nc(NCCN3CCOCC3)ncc2c1,active: 4.14 µM,,
C=C1C[C@H]2[C@@H]3C=C(C)C4=CC(=O)CC[C@]4(C)[C@H]3CC[C@]2(C)[C@@]1(OC(C)=O)C(C)=O,"inconclusive: 36.9 µM [cytotoxic, single point]",,
O=C1Nc2ccc(I)cc2C1=Cc1cc(Br)c(O)c(Br)c1,"inconclusive: 23.3 µM [cytotoxic, single point]",,
Cc1c(C)c2c(c(C)c1O)CCC(C)(COc1ccc(CC3SC(=O)NC3=O)cc1)O2 (stereo not given),"inconclusive: 23.3 µM [cytotoxic, single point]",,
CN(Cc1cnc2nc(N)nc(N)c2n1)c1ccc(C(=O)N[C@@H](CCC(=O)O)C(=O)O)cc1,"inconclusive: 0.0827 µM [cytotoxic, full curve, poor fit]",,
C#Cc1cccc(Nc2ncnc3cc(OC)c(OCCCCCCC(=O)NO)cc23)c1,active: 1.35 µM,,
CCOC(=O)[C@H](CCc1ccccc1)N[C@@H](C)C(=O)N1CCCC1C(=O)O (stereo not given in full),"inconclusive: 0.928 µM [cytotoxic, partial curve, poor fit]",,
O=C1N=C(O)CN1/N=C/c1ccc(-c2ccc([N+](=O)[O-])cc2)o1,,inactive: 1.15%,
COc1cccc2c(NCc3ccccc3)nc(-n3c(N)nc4ccccc43)nc12,"inconclusive: 1.31 µM [cytotoxic, full curve, poor fit]",,
C[C@@H]1C[C@H]2[C@@H]3CCC4=CC(=O)C=C[C@]4(C)[C@@]3(F)[C@@H](O)C[C@]2(C)[C@@]1(O)C(=O)CO,,inactive: 32.5%,
CC(C)(C(=O)c1cccnc1)c1cccnc1,,inactive: 11.3%,
OC[C@H]1O[C@@H](n2cnc3c(=S)nc[nH]c32)[C@H](O)[C@@H]1O,"inconclusive: 9.27 µM [cytotoxic, full curve]",,
CC1(C)O[C@@H]2C[C@H]3[C@@H]4CCC5=CC(=O)CC[C@]5(C)[C@@]4(F)[C@@H](O)C[C@]3(C)[C@]2(C(=O)CCl)O1,,inactive: -22.7%,
C[C@]12C=CC(=O)C=C1CC[C@H]1[C@@H]3C[C@@H](O)[C@](O)(C(=O)CO)[C@@]3(C)C[C@H](O)[C@@]12F,"inconclusive: 9.27 µM [cytotoxic, single point]",,
C#CCC(Cc1cnc2nc(N)nc(N)c2n1)c1ccc(C(=O)N[C@@H](CCC(=O)O)C(=O)O)cc1 (stereo not given in full),"inconclusive: 0.261 µM [cytotoxic, full curve]",,
Cc1cc(CS(=O)(=O)c2ccccc2)cc(OCc2ccc(CN3CCC[C@H]3CO)cc2)c1,"inconclusive: 23.3 µM [cytotoxic, single point]",,
C[C@@H](Oc1cc(-c2cnn(C3CCNCC3)c2)cnc1N)c1c(Cl)ccc(F)c1Cl,"inconclusive: 14.7 µM [cytotoxic, partial curve, poor fit]",,

SMILES,Potency,"activity change, negative = cytotoxicity",outcome
NC(=O)NO,active: 23.3 µM,,
CC[C@H]1CN2CCc3cc(OC)c(OC)cc3[C@H]2C[C@@H]1C[C@@H]1NCCc2cc(OC)c(OC)cc21,active: 0.928 µM,,
CC[C@@H]1C(=O)N(C)c2cnc(Nc3ccc(C(=O)NC4CCN(C)CC4)cc3OC)nc2N1C1CCCC1,"inconclusive: 0.0928 µM [cytotoxic, full curve, poor fit]",,
COc1cc2ncnc(Nc3cccc(Br)c3)c2cc1OC,,inactive: -21.7%,
CCCC(=O)O[C@]1(C(=O)CO)CC[C@H]2[C@@H]3CCC4=CC(=O)CC[C@]4(C)[C@H]3[C@@H](O)C[C@@]21C,,inactive: 0.519%,
COc1ccc(-n2nc(C(N)=O)c3c2C(=O)N(c2ccc(N4CCCCC4=O)cc2)CC3)cc1,"inconclusive: 1.65 µM [cytotoxic, full curve, poor fit]",,
O=[N+]([O-])c1ccc(O)c2ncccc12,,inactive: -70.2%,
Cc1cnc(Nc2ccc(F)cc2Cl)nc1-c1c[nH]c(C(=O)N[C@H](CO)c2cccc(Cl)c2)c1,active: 6.57 µM,,
CCN(CC)CCCC(C)Nc1ccnc2cc(Cl)ccc12 (stereo not given),,,inactive
COC(=O)c1ccc2c(C(=Nc3ccc(N(C)C(=O)CN4CCN(C)CC4)cc3)c3ccccc3)c(O)[nH]c2c1,active: 13.1 µM,,
Oc1cccc(-c2nc(N3CCOCC3)c3oc4ncccc4c3n2)c1,"inconclusive: 0.737 µM [cytotoxic, full curve]",,
CC#C[C@]1(O)CC[C@H]2[C@@H]3CCC4=CC(=O)CCC4=C3[C@@H](c3ccc(N(C)C)cc3)C[C@@]21C,"inconclusive: 36.9 µM [cytotoxic, single point]",,
N=C(N)c1ccc(OCCCCCOc2ccc(C(=N)N)cc2)cc1,"inconclusive: 14.7 µM [cytotoxic, partial curve, poor fit]",,
COc1ccc(-c2ccc3c(N4CCOCC4)nc(N4C[C@@H](C)O[C@@H](C)C4)nc3n2)cc1CO,active: 1.65 µM,,
C#Cc1cccc(Nc2ncnc3cc(OCCOC)c(OCCOC)cc23)c1,"inconclusive: 36.9 µM [cytotoxic, partial curve, poor fit]",,
COc1cccc2c1C(=O)c1c(O)c3c(c(O)c1C2=O)C[C@@](O)(C(=O)CO)C[C@@H]3O[C@H]1C[C@H](N)[C@H](O)[C@H](C)O1,"inconclusive: 36.9 µM [cytotoxic, single point]",,
COc1ccc(Nc2cc(-c3cnc(N)nc3)nc(N3CCOCC3)n2)cn1,active: 9.27 µM,,
CC(=O)O[C@]1(C(C)=O)CC[C@H]2[C@@H]3C[C@H](C)C4=CC(=O)CC[C@]4(C)[C@H]3CC[C@@]21C,"inconclusive: 11.7 µM [cytotoxic, full curve, poor fit]",,
CCOC(=O)N1CCN([N+]([O-])=NOc2ccc([N+](=O)[O-])cc2C#N)CC1,"inconclusive: 26.1 µM [cytotoxic, single point]",,
CC(N[C@H]1CCCC[C@H]1NC(=O)c1ccc(Cl)cc1)c1cccc2ccccc12 (stereo not given in full),"inconclusive: 36.9 µM [cytotoxic, single point]",,
